This series deals with PU.1 (wild type, BMDM nuclear extract) (mouse) (UniProt P17433). In words: EMSA, supershift. To be noted: BMDM nuclear extract, day 1 and 7; 5 ug nuclear extract, 6% native acrylamide gel, 0.5X TBE, chemiluminescent detection; binding buffer, pH and temperature not given; protein in an extract; label: 5' biotin.

The exact form of at least one protein or probe is not confirmed. Where cells or extracts were used, other partners may take part.

These results are taken from article PMC3973678.

As to “CGCGCAGTGGGGGCTGCGGGAAGGCGGGGAGAAGAAAGGCAGGGGGCGGGGCCTGGCGGCGGAGCCCCGCGCGCCG (double strand) [KLF4 promoter 76 bp oligo (-118/-113 PU.1 element)]”, the binding result is listed as “binds”.
